Some results were stated once for a whole list of compounds, not compound by compound.
Test system: Wnt/β-catenin pathway
Experiment: SuperTOPFLASH (STF1.1 Hek-293) Wnt/β-catenin-driven luciferase reporter
Assay type: cell-based
Conditions: IC50 Survivin-Hek-293 / IC50 STF 1.1
Procedure: A. Wnt/β-Catenin Activity: The Initial SuperTOPFLASH Screen.
Hek293 cells were stably transfected with plasmid that contains multiple TCF/LEF fragments in front of Luciferase gene. Wnt/β-catenin activity was determined from luciferase expression levels. […] Briefly, stably transfected Hek-293, STFI.1 (Wnt/β-catenin-driven luciferase) and Survivin-Hek-293 (1 Kb Human survivin promoter-driven luciferase) cells were maintained in DMEM, 10% FBS, Pen/Strep with 400 μg/mL G418 or 2 μg/mL puromycin, respectively. To check the activity of ICG-001, YH249, and YH250, the cells were split into white-opaque 96-well plates at 10,000 cells per well and allowed to attach overnight. […] Luciferase activity was read using BrightGlo (Promnega) luciferase substrate. For survivin/luc, the inhibitors were added to the cells and incubated for 24 hours prior to readout. […]
An endogenous human survivin 1 kb promoter was inserted before a luciferase gene. […] Percent inhibition of luciferase activity was calculated according to the following equations; % inhibition of STF 1.1 reporter activity=(I−RLU(10 mM LiCl) treated/RLU(10 omM LiCl) vehicle×control)100, % inhibition of Survivin reporter activity=(1−RLUtreated/RLU vehicle control)×100. […] Selectivity (FIG. 2H) was calculated by IC50 value for Survivin-Hek-293/IC50 value for STF 1.1.

## COc1cccc(CNC(=O)N2C3CN(Cc4cccc(Cl)c4N(C)C)C(=O)[C@H](Cc4ccc(O)cc4)N3C(=O)CN2C)c1OC (stereo partly shown) [YH249]
  selectivity for the p300/β-catenin interaction relative to the CBP/β-catenin interaction: > 200 fold
